Results: PMC6265451
Results are given in words; binding and its absence hold for the method and conditions named. Binding seen in cells or lysates may run through a third protein. A yes stands for co-enrichment or nearness to the bait. Other partners may have been found.

By UniProt entry, the sequences of proteins in these tests, tags left out.
UniProt P53538: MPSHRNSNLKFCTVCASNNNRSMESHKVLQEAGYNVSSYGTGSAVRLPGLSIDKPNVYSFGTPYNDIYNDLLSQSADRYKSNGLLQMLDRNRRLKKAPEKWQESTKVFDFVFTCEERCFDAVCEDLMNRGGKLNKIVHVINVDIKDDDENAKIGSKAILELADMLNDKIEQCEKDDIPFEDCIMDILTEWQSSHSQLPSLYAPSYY
UniProt P32598: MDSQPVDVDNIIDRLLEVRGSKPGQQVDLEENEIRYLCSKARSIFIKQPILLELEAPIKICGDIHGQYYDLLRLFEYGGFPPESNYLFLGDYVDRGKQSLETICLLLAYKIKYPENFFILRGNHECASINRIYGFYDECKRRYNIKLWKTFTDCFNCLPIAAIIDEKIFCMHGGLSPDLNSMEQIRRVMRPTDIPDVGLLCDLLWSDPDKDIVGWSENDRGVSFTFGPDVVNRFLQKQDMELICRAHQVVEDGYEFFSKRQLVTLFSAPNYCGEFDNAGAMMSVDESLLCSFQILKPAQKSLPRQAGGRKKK
UniProt P29468: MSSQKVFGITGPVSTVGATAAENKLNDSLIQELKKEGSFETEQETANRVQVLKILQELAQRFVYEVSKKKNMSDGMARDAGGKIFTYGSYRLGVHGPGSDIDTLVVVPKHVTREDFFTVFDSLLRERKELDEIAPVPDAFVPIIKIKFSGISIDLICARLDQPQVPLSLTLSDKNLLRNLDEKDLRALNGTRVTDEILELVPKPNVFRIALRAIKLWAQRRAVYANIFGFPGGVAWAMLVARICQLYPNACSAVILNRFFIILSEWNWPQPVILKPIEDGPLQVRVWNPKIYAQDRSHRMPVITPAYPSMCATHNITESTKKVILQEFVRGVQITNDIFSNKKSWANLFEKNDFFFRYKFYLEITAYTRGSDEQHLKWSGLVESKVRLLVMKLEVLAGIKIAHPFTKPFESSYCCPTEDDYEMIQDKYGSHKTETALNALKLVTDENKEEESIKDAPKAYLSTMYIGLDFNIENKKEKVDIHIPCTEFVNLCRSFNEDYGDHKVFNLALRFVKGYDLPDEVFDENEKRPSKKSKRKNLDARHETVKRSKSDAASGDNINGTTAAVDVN

T1: Pta1-TAPS (S. cerevisiae) (UniProt Q01329)
T1 sequence: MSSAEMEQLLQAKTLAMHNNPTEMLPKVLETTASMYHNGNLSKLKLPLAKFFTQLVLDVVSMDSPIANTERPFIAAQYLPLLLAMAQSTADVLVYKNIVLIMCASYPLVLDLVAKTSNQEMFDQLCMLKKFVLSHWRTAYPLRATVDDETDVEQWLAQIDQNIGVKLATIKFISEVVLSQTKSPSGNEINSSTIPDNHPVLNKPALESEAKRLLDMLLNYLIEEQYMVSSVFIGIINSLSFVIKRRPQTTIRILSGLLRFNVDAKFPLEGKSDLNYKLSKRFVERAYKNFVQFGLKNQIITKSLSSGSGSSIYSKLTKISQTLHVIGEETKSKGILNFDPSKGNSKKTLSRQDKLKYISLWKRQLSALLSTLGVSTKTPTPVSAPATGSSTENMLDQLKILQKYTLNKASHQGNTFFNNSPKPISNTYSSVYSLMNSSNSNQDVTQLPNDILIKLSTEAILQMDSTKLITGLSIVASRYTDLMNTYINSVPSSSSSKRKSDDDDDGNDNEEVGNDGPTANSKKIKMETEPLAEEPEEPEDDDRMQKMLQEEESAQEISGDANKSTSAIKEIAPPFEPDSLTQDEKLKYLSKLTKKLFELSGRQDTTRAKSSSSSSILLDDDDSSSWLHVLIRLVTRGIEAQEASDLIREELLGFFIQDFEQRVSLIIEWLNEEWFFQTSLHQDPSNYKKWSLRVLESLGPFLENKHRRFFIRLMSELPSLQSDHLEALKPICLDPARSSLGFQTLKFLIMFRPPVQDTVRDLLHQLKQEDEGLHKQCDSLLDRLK


Target: T1, Pta1-TAPS (S. cerevisiae)
Assay: affinity purification with mass spectrometry; TAPS tandem affinity purification from tagged yeast: IgG sepharose, TEV protease elution, Streptactin resin, desthiobiotin elution; SDS-PAGE stained with SYPRO Ruby, excised bands identified by tryptic-digest mass spectrometry

| Molecule | binding |
| --- | --- |
| Ssu72 (from UniProt P53538 1-206) (enzyme) | binds |
| Glc7 (from UniProt P32598 1-312) (enzyme) | binds |
| Cft1 (protein, UniProt Q06632 1-1357) MNVYDDVLDATVVSHSLATHFTTSDYEELLVVRTNILSVYRPTRDGKLYLTDEFKFHGLITDIGLIPQKDSPLSCLLLCTGVAKISILKFNTLTNSIDTLSLHYYEGKFKGKSLVELAKISTLRMDPGSSCALLFNNDIIAFLPFHVNKNDDDEEEEDEDENIDDSELIHSMNQKSQGTNTFNKRKRTKLGDKFTAPSVVLVASELYEGAKNIIDIQFLKNFTKPTIALLYQPKLVWAGNTTISKLPTQYVILTLNIQPAESATKIESTTIAFVKELPWDLHTIVPVSNGAIIVGTNELAFLDNTGVLQSTVLLNSFADKELQKTKIINNSSLEIMFREKNTTSIWIPSSKSKNGGSNNDETLLLMDLKSNIYYIQMEAEGRLLIKFDIFKLPIVNDLLKENSNPKCITRLNATNSNKNMDLFIGFGSGNALVLRLNNLKSTIETREAHNPSSGTNSLMDINDDDDEEMDDLYADEAPENGLTTNDSKGTVETVQPFDIELLSSLRNVGPITSLTVGKVSSIDDVVKGLPNPNKNEYSLVATSGNGSGSHLTVIQTSVQPEIELALKFISITQIWNLKIKGRDRYLITTDSTKSRSDIYESDNNFKLHKGGRLRRDATTVYISMFGEEKRIIQVTTNHLYLYDTHFRRLTTIKFDYEVIHVSVMDPYILVTVSRGDIKIFELEEKNKRKLLKVDLPEILNEMVITSGLILKSNMCNEFLIGLSKSQEEQLLFTFVTADNQIIFFTKDHNDRIFQLNGVDQLNESLYISTYQLGDEIVPDPSIKQVMINKLGHDNKEEYLTILTFGGEIYQYRKLPQRRSRFYRNVTRNDLAITGAPDNAYAKGVSSIERIMHYFPDYNGYSVIFVTGSVPYILIKEDDSTPKIFKFGNIPLVSVTPWSERSVMCVDDIKNARVYTLTTDNMYYGNKLPLKQIKISNVLDDYKTLQKLVYHERAQLFLVSYCKRVPYEALGEDGEKVIGYDENVPHAEGFQSGILLINPKSWKVIDKIDFPKNSVVNEMRSSMIQINSKTKRKREYIIAGVANATTEDTPPTGAFHIYDVIEVVPEPGKPDTNYKLKEIFQEEVSGTVSTVCEVSGRFMISQSQKVLVRDIQEDNSVIPVAFLDIPVFVTDSKSFGNLLIIGDAMQGFQFIGFDAEPYRMISLGRSMSKFQTMSLEFLVNGGDMYFAATDADRNVHVLKYAPDEPNSLSGQRLVHCSSFTLHSTNSCMMLLPRNEEFGSPQVPSFQNVGGQVDGSVFKIVPLSEEKYRRLYVIQQQIIDRELQLGGLNPRMERLANDFYQMGHSMRPMLDFNVIRRFCGLAIDRRKSIAQKAGRHAHFEAWRDIINIEFSMRSLCQGK | binds |
| Pti1 (protein, UniProt P39927 1-425) MTDPRRRTGRHFLTPENLSSTLQITNLPPEWNQDIITSVVAGSGPVIDIKAKNDPRTGKLTGVLFDYLTSKDCKRAWEILNRIENFPVKIEQIIPPNYKDHLRETANKNSQKQVLQLNRDSYPFEAGLELPFEMVTEVPIPRRPPPPQAANNTNSVSNNTNIQFPDILSKASKHLPSFQDGSIIAPDKISQNLSKIPPLQLIEIISNLKILSNQENIQKSQLESFLDTNSDITISVTQALLEMGFIDYSVVTKVLKSQVGEAPSLLSSNNTSNSNTPVSVIRNNTPLHVPSNEVSNNPNNMPLNVAMPMPMSTPPFIPLPLQQQPFGFAPPGPFMPPAQGPSMGQPVLANQLGQVQQQNISSTEGPSNANKANDSGTINMAKLQLLPENQQDMIKQVLTLTPAQIQSLPSDQQLMVENFRKEYII | binds |

Now from value to molecule:

| binding | Molecule |
| --- | --- |
| binds | Pap1 (from UniProt P29468 1-568) (enzyme) |
| binds | Swd2 (protein, UniProt P36104 1-329) MTTVSINKPNLLKFKHVKSFQPQEKDCGPVTSLNFDDNGQFLLTSSSNDTMQLYSATNCKFLDTIASKKYGCHSAIFTHAQNECIYSSTMKNFDIKYLNLETNQYLRYFSGHGALVNDLKMNPVNDTFLSSSYDESVRLWDLKISKPQVIIPSLVPNCIAYDPSGLVFALGNPENFEIGLYNLKKIQEGPFLIIKINDATFSQWNKLEFSNNGKYLLVGSSIGKHLIFDAFTGQQLFELIGTRAFPMREFLDSGSACFTPDGEFVLGTDYDGRIAIWNHSDSISNKVLRPQGFIPCVSHETCPRSIAFNPKYSMFVTADETVDFYVYDE |
